± gives the standard deviation. The list shows a part of the results, in another mix than the full data. Many of these values have a large error.
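Note: 1 nM active piRISC with 0.1 nM target library at 33 °C single turnover.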

The assay relates to MIWI (PIWIL1) piRISC loaded with L1MC piRNA (30 nt). The assay can be described thus: pre-steady-state target cleavage rate (min^-1); MIWI and MILI are mouse PIWI proteins and EfPiwi is from a freshwater sponge; tags in brackets are library labels; higher = faster piRNA-guided slicing of the target. The conditions noted are these: guide: L1MC piRNA 5'p-UAACUAAAUACUAUGCAAGCUGUAGGUCCU; auxiliary factor: none (no GTSF1). In short, it runs like this: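 A transcribed, DNA-blocked target RNA library […] was incubated at 33 °C for 0–8 or 0–960 min with 1 nM active affinity-purified piRISC carrying one synthetic guide, in HEPES–potassium acetate buffer with or without 500 nM GTSF1 partner protein. Uncleaved targets were then sequenced and normalised to depth and to weakly complementary targets. Data from three trials were pooled, with k3 capped at 0.0001 min^-1, and a burst-and-steady-state fit yielded the pre-steady-state cleavage rate.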
As to UCCUGGAUGUCGAACGUUUGUAUUUAGUUA, the “pre-steady-state target cleavage rate” value was 0.000187 ± 0.026.
As for AGGACCUACAGCUACGAUAGUAUUUAGAAA, the figure is 0.000247 ± 0.015; as for UGGACCUACAGCUUGCGAUAGUAUUUAGUUA, 0.00148 ± 0.0036.
With UCCACCUACAGCUUGCAUACAAUUUUCAAA the figure was 0.000878 ± 0.0081; with AGGACCUACAGCUUGCAUAGUUAUUAGAAA, 0.00156 ± 0.0064; with “UCGACCUACAGCUUGCAUAGUAUUUUCAAA [g6:g28:cont:t1A]”, 0.00274 ± 0.0038.
Consider UCCACCUACAGCUUGCAUAGUUUUUAGAAA, for which the “pre-steady-state target cleavage rate” value amounted to 0.00261 ± 0.0038.
As for UCCACCUACAGCUUGCAUAGCUAUUUAGUUA, the figure is 0.00166 ± 0.0059; as for AGGACCUACAGCUUGCAUUCUAUUUAGAAA, 0.00161 ± 0.0043.
As for UGCACCUACAGCUUCCAUAGUAUUUAGUUA, the figure is 0.00148 ± 0.0049.
With UCCACCUACAGCUUGCAUAGAAUUUUCAAA the figure was 0.000389 ± 0.0081; with UCGACCUACUCGUUGCAUAGUAUUUUCAAA, 0.00091 ± 0.0039; with AGGACCUACAGCUUGGUAAGUAUUUAGUUA, 0.00119 ± 0.0059.
Regarding UCCAGCUACAGCUUGCAUAGUAUUUUCAAA, the “pre-steady-state target cleavage rate” value turned out to be 0.00263 ± 0.0028.
As for “UGGACCUACAGCUUGCAAUCAUAAAUCAAA [g14:g29:cont:t1A]”, the figure is 0.000227 ± 0.012; as for UGGACCUACAGCUUGCAUCAGUAUUUAGUUA, 0.000851 ± 0.0056; as for UCCACCUACAGCUUGCAUAGUAUUAACAAA, 0.00169 ± 0.004.
As for UCGACCUACAGCUUGCAAUCUAUUUAGUAA, the figure is 0.00174 ± 0.0031; as for UCGACCUACAGCUUGCCAUAGUAUUUAGUUA, 0.0029 ± 0.0036; as for UCCUGGAUGUCCUAGCAUAGUAUUUAGUAA, 0.00158 ± 0.0044.
With UCGACCUACAGCUUCCAUAGUAUUUUGUUA the figure was 0.00126 ± 0.0047; with UCCACCUACAGCUUGCUAGUAUUUAGUUA, 0.00172 ± 0.0026; with UCGACCUACAGCUUCCAUAGAAUUUAGUUA, 0.00142 ± 0.0029.
For UGGACCUACAGCUUCCAUAGUAUUAAGUUA, the “pre-steady-state target cleavage rate” value stood at 0.000482 ± 0.0073.
Turning to UCCUGGUACAGCUACCAUAGUAUUUAGUAA, the “pre-steady-state target cleavage rate” value worked out at 0.00121 ± 0.0081.
For the sequence AGGACCUACAGCUUCGUUAGUAUUUUCAAA, the “pre-steady-state target cleavage rate” value came out at 0.000214 ± 0.014.
As for AGGACCUACAGCUUGCAUACAUUUUAGUAA, the figure is 0.000893 ± 0.0097; as for UCCUGGAUGUCCUUGCAAAGUAUUUAGAUA, 0.00153 ± 0.0031; as for UGGACCUACAGCUUGCAAUCUAUUUAGUUA, 0.00241 ± 0.0031.
For UGGACCUACAGCUACCAUAGUAUUUUCAAA, the “pre-steady-state target cleavage rate” value was 0.000147 ± 0.015.
On to UCCACCUACAGCUUGCAUAGUAAAAAGAAA, for which the “pre-steady-state target cleavage rate” value was determined as 0.000758 ± 0.01.
Regarding UGGACCUACAGCUUGCAUAGUAUAUACAAA, the “pre-steady-state target cleavage rate” value amounted to 0.00154 ± 0.0043.
Regarding UCCUGGAUGAGCUUGCAUUCAAUUUAGUAA, the “pre-steady-state target cleavage rate” value was 0.000253 ± 0.013.
As for UGGACCUACAGGAAGCAUAGUAUUUUCAAA, the figure is 0.000632 ± 0.0071.
As for AGGACCUACACGAUGCAUAGUAUUUACAAA, the figure is 0.00107 ± 0.0074; as for AGGACCUACAGCUUGCAUAGCUAUUUAGUUA, 0.00209 ± 0.0054; as for UCGACCUAGUGCUUGCAUAGUAUUUUCAAA, 0.00201 ± 0.0021.
AGGACCUACAGCAACCAUAGUAUUUAGUAA: the “pre-steady-state target cleavage rate” value was determined as 0.000974 ± 0.0078.

The values are drawn from the supplement of paper PMC10338343.
